± gives the standard deviation of the averaged measurements. Only a part is listed here, and it is no random draw.
Compound: Nc1ncnc2c1ncn2[C@@H]1O[C@H](COP(=O)(O)OP(=O)(O)OP(=O)(O)O)[C@@H](O)[C@H]1O [adenosine triphosphate]
Experiment: NP40-soluble protein abundance relative to vehicle (solubility fold change) (ratio); higher = more soluble protein in presence of ATP
Method in brief: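 In three independent experiments, Jurkat crude lysate made by Dounce homogenisation was treated for 10 min at room temperature and then 3 min at 37 °C with eight concentrations ranging from 0.1 to 10 mM. It was then solubilised with 0.8% NP40 plus benzonase for 60 min at 4 °C and ultracentrifuged. The supernatant was TMT-labelled for LC-MS/MS, and each value is the fold change against the detergent-processed vehicle for the same replicate, using vsn-normalised intensities.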

The chains behind the UniProt entries cited, without tags or fusion partners. Where a name states a change or a piece, a line headed by the entry shows the natural chain unless it says otherwise.
UniProt Q5HYK3: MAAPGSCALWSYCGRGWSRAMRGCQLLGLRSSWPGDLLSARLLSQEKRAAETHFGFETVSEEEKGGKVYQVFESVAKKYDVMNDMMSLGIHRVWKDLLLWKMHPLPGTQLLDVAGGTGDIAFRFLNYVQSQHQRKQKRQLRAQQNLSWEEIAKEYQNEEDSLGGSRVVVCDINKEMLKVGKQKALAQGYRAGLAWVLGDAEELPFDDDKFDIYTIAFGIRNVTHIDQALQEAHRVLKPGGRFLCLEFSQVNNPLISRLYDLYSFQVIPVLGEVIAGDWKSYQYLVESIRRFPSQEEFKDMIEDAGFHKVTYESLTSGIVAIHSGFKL
UniProt Q6NZY4: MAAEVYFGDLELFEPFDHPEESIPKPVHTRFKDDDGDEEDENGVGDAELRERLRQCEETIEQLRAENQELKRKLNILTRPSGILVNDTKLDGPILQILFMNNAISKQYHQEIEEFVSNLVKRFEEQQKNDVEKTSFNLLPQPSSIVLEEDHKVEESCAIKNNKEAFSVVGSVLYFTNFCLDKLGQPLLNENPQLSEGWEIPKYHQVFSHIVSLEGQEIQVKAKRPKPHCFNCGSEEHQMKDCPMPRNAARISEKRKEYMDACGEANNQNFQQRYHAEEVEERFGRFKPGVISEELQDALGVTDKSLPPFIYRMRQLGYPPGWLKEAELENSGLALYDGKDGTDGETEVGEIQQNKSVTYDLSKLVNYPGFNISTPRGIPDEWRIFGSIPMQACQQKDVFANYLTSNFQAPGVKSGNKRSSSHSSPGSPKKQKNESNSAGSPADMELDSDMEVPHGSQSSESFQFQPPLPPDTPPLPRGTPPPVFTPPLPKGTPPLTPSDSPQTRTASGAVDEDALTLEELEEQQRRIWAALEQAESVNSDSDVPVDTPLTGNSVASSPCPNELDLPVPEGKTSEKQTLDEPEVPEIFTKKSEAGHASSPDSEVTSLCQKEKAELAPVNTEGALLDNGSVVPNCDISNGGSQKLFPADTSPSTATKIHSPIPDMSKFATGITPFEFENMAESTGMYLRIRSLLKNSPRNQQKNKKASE
UniProt Q5RI15: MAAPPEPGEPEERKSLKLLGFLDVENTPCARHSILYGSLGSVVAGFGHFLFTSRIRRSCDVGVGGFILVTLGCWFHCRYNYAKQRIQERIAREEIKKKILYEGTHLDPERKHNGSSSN
UniProt Q6P1K2: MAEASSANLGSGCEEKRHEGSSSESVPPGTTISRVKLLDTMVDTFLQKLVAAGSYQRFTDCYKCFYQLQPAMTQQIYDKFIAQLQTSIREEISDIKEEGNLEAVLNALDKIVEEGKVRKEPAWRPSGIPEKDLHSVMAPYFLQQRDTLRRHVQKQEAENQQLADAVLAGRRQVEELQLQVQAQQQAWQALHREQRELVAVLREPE
UniProt Q58WW2: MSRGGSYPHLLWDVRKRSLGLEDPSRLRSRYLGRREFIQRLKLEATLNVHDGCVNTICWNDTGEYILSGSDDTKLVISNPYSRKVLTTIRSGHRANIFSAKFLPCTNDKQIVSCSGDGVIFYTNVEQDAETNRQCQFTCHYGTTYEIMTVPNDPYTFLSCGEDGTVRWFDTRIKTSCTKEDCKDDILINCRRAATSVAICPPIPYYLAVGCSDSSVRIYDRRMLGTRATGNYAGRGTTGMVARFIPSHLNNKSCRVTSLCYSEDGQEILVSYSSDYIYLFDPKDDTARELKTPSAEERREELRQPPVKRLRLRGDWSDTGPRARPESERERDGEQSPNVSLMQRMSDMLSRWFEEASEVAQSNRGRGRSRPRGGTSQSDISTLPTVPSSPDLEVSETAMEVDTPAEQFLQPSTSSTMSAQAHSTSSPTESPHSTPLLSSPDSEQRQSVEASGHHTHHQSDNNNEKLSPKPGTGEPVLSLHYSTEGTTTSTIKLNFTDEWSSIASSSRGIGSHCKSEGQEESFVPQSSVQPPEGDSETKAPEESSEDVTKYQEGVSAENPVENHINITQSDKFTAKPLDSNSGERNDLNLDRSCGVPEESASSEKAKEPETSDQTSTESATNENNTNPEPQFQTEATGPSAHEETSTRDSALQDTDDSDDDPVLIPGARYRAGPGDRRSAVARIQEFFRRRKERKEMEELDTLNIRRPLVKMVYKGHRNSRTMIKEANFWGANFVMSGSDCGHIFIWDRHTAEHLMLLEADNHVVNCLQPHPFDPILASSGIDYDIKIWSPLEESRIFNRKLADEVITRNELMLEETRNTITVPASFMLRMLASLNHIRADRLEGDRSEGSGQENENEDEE
UniProt Q5VZM2, whole entry, looked up: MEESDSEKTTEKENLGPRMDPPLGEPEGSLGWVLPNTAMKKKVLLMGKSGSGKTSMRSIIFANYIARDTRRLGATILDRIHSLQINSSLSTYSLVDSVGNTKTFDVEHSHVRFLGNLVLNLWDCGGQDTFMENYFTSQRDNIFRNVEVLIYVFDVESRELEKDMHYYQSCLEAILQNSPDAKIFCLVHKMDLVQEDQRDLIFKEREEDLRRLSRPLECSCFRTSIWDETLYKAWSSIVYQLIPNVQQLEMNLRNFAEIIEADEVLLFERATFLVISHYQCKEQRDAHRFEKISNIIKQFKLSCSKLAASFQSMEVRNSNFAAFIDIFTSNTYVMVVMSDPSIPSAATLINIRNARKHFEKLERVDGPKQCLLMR
UniProt Q6NT76: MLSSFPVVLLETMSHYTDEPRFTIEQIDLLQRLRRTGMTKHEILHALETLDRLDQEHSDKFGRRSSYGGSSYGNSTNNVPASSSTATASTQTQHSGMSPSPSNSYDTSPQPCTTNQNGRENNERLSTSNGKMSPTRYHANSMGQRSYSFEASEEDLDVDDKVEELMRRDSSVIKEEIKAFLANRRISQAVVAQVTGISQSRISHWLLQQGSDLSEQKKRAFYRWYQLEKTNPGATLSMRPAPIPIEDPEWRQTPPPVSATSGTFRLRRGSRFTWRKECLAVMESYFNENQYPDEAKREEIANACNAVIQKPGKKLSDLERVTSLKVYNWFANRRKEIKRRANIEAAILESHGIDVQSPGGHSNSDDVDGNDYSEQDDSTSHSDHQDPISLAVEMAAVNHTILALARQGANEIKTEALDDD
UniProt Q6IN84: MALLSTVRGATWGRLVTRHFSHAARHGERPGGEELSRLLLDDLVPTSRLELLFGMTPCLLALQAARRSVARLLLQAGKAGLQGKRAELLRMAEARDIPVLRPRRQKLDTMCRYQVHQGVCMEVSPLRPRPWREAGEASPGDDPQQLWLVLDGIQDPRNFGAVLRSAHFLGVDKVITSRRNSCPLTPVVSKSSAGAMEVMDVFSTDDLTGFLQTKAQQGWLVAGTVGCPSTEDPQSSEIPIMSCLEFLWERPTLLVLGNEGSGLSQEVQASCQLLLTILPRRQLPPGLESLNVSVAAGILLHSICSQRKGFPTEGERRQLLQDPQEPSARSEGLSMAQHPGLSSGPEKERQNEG
UniProt Q5EBL8: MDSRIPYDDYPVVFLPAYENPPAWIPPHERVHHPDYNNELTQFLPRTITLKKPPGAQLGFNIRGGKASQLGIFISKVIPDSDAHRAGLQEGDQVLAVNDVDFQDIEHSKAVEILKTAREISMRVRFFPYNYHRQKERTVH
UniProt Q5BJD5: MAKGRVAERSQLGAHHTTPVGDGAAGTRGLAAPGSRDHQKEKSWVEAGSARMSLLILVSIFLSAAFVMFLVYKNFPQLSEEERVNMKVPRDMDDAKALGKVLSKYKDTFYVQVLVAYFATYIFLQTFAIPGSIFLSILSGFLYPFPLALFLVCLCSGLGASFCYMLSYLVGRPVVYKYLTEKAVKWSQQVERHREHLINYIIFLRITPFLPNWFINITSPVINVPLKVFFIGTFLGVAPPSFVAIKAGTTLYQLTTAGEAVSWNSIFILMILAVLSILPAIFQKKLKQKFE
UniProt Q5XPI4: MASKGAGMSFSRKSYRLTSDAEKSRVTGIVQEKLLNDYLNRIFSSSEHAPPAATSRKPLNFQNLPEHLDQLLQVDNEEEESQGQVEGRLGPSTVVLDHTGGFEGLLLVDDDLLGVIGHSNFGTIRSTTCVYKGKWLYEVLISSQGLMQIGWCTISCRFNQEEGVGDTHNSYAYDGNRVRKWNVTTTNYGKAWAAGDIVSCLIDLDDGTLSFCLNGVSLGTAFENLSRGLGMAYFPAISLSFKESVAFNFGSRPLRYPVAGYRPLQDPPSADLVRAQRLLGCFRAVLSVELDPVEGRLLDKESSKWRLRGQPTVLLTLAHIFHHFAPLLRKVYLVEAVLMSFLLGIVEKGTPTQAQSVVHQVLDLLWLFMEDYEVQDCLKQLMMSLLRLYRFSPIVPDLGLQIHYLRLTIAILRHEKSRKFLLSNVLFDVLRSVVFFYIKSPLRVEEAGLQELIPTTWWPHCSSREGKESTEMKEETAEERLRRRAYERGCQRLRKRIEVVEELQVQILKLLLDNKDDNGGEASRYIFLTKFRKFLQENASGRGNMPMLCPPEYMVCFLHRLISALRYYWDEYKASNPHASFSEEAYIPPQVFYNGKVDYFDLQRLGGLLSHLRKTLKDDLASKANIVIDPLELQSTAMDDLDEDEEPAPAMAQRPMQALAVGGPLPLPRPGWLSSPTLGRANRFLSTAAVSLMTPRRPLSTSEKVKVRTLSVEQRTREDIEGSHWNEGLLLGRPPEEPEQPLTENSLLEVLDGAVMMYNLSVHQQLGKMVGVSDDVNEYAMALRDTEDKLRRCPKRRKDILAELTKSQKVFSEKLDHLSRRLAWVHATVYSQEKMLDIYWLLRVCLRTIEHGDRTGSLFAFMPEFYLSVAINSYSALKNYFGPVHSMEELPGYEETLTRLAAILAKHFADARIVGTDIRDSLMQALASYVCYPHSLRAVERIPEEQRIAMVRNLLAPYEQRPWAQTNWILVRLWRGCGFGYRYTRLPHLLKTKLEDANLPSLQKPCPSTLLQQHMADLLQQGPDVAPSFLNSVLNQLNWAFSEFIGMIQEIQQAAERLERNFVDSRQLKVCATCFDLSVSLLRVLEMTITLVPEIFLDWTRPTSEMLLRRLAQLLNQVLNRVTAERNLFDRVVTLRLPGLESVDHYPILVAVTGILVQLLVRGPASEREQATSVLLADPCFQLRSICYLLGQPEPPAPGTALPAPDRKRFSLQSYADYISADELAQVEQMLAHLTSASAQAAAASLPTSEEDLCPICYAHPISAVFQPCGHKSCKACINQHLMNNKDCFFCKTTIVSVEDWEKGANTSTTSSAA
UniProt Q5T5X7: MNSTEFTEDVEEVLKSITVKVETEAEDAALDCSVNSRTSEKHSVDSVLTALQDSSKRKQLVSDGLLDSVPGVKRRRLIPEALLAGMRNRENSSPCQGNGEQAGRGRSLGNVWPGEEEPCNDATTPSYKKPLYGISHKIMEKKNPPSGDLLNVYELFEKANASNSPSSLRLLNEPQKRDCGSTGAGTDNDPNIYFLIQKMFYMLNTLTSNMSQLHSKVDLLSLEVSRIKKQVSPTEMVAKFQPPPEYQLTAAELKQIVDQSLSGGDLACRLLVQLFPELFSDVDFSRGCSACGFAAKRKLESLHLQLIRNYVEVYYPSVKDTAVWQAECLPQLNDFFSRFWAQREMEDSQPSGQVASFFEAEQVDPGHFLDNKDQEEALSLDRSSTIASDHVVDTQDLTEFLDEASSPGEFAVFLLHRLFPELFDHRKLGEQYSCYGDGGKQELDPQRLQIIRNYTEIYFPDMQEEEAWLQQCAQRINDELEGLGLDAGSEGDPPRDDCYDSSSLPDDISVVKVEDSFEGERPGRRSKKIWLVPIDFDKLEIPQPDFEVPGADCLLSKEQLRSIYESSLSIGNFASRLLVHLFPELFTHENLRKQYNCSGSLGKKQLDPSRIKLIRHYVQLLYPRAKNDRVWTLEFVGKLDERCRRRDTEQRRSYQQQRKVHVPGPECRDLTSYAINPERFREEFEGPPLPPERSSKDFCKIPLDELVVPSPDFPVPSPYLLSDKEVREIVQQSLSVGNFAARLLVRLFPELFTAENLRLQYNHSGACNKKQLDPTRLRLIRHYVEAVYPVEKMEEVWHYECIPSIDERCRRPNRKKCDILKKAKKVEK
UniProt Q5T440: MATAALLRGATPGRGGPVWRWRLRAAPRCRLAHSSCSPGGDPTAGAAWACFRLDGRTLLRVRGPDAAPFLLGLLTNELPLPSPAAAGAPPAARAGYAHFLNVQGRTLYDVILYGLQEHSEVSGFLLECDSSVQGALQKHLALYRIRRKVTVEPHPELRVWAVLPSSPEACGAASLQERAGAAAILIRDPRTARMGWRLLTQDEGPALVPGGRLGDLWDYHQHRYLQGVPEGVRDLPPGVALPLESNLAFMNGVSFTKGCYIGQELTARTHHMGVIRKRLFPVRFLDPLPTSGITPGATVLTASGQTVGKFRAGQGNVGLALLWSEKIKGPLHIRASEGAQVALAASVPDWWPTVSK
UniProt Q53TN4: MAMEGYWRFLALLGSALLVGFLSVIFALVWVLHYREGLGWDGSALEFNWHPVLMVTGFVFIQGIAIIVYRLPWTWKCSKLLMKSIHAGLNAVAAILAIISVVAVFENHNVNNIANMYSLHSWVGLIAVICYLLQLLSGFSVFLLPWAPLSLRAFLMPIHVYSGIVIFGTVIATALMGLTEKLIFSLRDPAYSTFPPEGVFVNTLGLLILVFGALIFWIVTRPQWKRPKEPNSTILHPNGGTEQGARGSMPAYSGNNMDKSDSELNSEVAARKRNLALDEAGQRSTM

Target	NP40-soluble protein abundance (concentration: 1mM)	NP40-soluble protein abundance (concentration: 2mM)	NP40-soluble protein abundance (concentration: 4mM)	NP40-soluble protein abundance (concentration: 6mM)	NP40-soluble protein abundance (concentration: 8mM)	NP40-soluble protein abundance (concentration: 10mM)
UniProt Q6N043 and related entries	1.03 ± 0.039	1.07 ± 0.029	1.11 ± 0.046	1.16 ± 0.072	1.18 ± 0.048	1.21 ± 0.061
COQ5 (UniProt Q5HYK3)	0.957 ± 0.042	0.942 ± 0.062	0.931 ± 0.082	0.896 ± 0.077	0.952 ± 0.04	0.9641 ± 0.0086
UniProt Q5JS37 and related entries	1.07 ± 0.062	1.08 ± 0.065	1.08 ± 0.045	1.06 ± 0.014	1.09 ± 0.1	1.1 ± 0.14
MED27 (UniProt Q6P2C8)	1.01 ± 0.066	1.01 ± 0.16	0.936 ± 0.15	0.988 ± 0.15	1 ± 0.17	0.991 ± 0.096
UHRF1BP1 (UniProt Q6BDS2)	1.05 ± 0.13	1.04 ± 0.053	1.07 ± 0.081	1.09 ± 0.087	1.06 ± 0.034	1.08 ± 0.044
UniProt Q5JTH9 and related entries	0.992 ± 0.024	1.02 ± 0.038	0.995 ± 0.073	1.028 ± 0.007	1.02 ± 0.065	1.1 ± 0.045
TP53I3 (UniProt Q53FA7)	0.957 ± 0.026	0.944 ± 0.048	0.949 ± 0.014	0.92 ± 0.059	0.934 ± 0.025	0.95 ± 0.013
UniProt Q5FWF5	1.14 ± 0.11	1.27 ± 0.23	1.27 ± 0.26	1.34 ± 0.32	1.35 ± 0.26	1.44 ± 0.36
ZCCHC8 (UniProt Q6NZY4)	0.987 ± 0.089	0.97 ± 0.094	0.991 ± 0.086	1.07 ± 0.18	1.07 ± 0.095	1.09 ± 0.1
DHX57 (UniProt Q6P158)	1.03 ± 0.022	1.05 ± 0.03	1.12 ± 0.033	1.14 ± 0.026	1.15 ± 0.059	1.08 ± 0.039
ARHGAP15 (UniProt Q53QZ3)	1.08 ± 0.011	1.06 ± 0.0099	1.051 ± 0.0069	1.07 ± 0.039	1.07 ± 0.034	1.06 ± 0.035
UniProt Q5RI15 and related entries	1.06 ± 0.17	1.11 ± 0.1	1.03 ± 0.024	1.21 ± 0.14	0.955 ± 0.079	0.9581 ± 0.0094
SNX30 (UniProt Q5VWJ9)	0.947 ± 0.031	0.9748 ± 0.0026	1 ± 0.03	0.944 ± 0.024	1.01 ± 0.059	0.99 ± 0.021
UniProt Q6F5E8 and related entries	1.09 ± 0.021	1.07 ± 0.052	1.15 ± 0.066	1.15 ± 0.14	1.17 ± 0.1	1.23 ± 0.11
PMF1 (UniProt Q6P1K2)	1.02 ± 0.12	0.968 ± 0.046	1.02 ± 0.077	1.01 ± 0.096	0.973 ± 0.077	0.975 ± 0.093
UniProt Q6NYC1 and related entries	1.023 ± 0.0072	1.03 ± 0.037	0.993 ± 0.043	1.01 ± 0.024	1.01 ± 0.027	1.01 ± 0.013
UniProt Q5VW36 and related entries	0.872 ± 0.051	0.883 ± 0.063	0.924 ± 0.0074	0.9248 ± 0.0075	1 ± 0.039	0.956 ± 0.076
UniProt Q5T6F0	0.916 ± 0.099	0.941 ± 0.028	0.978 ± 0.092	0.931 ± 0.034	0.953 ± 0.068	1.01 ± 0.044
CEP350 (UniProt Q5VT06)	0.975 ± 0.073	0.975 ± 0.17	0.892 ± 0.13	0.917 ± 0.2	0.935 ± 0.093	0.939 ± 0.13
MANEA (UniProt Q5SRI9)	0.913 ± 0.11	0.903 ± 0.1	0.973 ± 0.14	0.892 ± 0.12	0.8755 ± 0.0042	0.914 ± 0.013

Target	NP40-soluble protein abundance (concentration: 1mM)	NP40-soluble protein abundance (concentration: 2mM)	NP40-soluble protein abundance (concentration: 4mM)	NP40-soluble protein abundance (concentration: 6mM)	NP40-soluble protein abundance (concentration: 8mM)	NP40-soluble protein abundance (concentration: 10mM)
UniProt Q58WW2 and related entries	0.948 ± 0.032	0.9751 ± 0.0066	0.985 ± 0.025	0.993 ± 0.036	0.967 ± 0.033	1 ± 0.088
UniProt Q5VSL9	0.932 ± 0.034	0.956 ± 0.013	0.942 ± 0.052	0.92 ± 0.05	0.939 ± 0.075	0.951 ± 0.045
RCSD1 (UniProt Q6JBY9)	0.809 ± 0.088	0.805 ± 0.037	0.783 ± 0.014	0.822 ± 0.079	0.7364 ± 0.0037	0.692 ± 0.063
UniProt Q53GT1 and related entries	1.02 ± 0.21	0.874 ± 0.03	0.827 ± 0.11	0.958 ± 0.16	0.876 ± 0.14	0.898 ± 0.12
UniProt Q63HQ0	0.927 ± 0.066	0.926 ± 0.037	0.898 ± 0.053	0.937 ± 0.044	0.863 ± 0.064	0.861 ± 0.036
DENND1B (UniProt Q6P3S1)	0.994 ± 0.06	0.971 ± 0.041	0.966 ± 0.021	0.956 ± 0.06	0.962 ± 0.018	0.98 ± 0.062
UniProt Q5T0D9 and related entries	1.09 ± 0.1	0.967 ± 0.092	1.06 ± 0.077	0.982 ± 0.2	1.05 ± 0.15	1.05 ± 0.018
Q5LJA5 and related entries (UniProt Q9Y5K5)	0.971 ± 0.04	0.977 ± 0.033	0.976 ± 0.033	1 ± 0.043	0.948 ± 0.041	0.948 ± 0.029
UniProt Q5VZE5	1.02 ± 0.074	1.04 ± 0.059	1.02 ± 0.067	1.02 ± 0.083	1.04 ± 0.06	1.03 ± 0.064
UniProt Q5U5Q3 and related entries	0.939 ± 0.019	0.977 ± 0.076	0.904 ± 0.066	0.954 ± 0.15	0.868 ± 0.12	0.978 ± 0.13
GKAP1 (UniProt Q5VSY0)	1.07 ± 0.093	1.16 ± 0.17	1.16 ± 0.12	1.24 ± 0.12	1.31 ± 0.25	1.29 ± 0.16
Q5VZM2-2|Q7L523 (UniProt Q7L523+Q5VZM2)	1.11 ± 0.18	1.07 ± 0.14	1.13 ± 0.17	1.06 ± 0.13	1.15 ± 0.13	1.05 ± 0.12
UniProt Q5GLZ8 and related entries	1.03 ± 0.054	1.04 ± 0.064	1.06 ± 0.12	0.976 ± 0.056	1.05 ± 0.06	1.04 ± 0.045
UniProt Q6NT76 and related entries	0.93 ± 0.076	0.932 ± 0.044	0.94 ± 0.055	0.972 ± 0.046	0.934 ± 0.027	0.9101 ± 0.0044
CWF19L1 (UniProt Q69YN2)	0.968 ± 0.044	0.965 ± 0.016	0.973 ± 0.024	0.945 ± 0.07	0.953 ± 0.027	0.9744 ± 0.0095
UniProt Q69YN4 and related entries	1.08 ± 0.038	1.1 ± 0.017	1.12 ± 0.028	1.11 ± 0.02	1.13 ± 0.037	1.17 ± 0.051
UniProt Q5VVQ6 and related entries	1.03 ± 0.074	0.999 ± 0.053	1.01 ± 0.073	1.02 ± 0.12	1.02 ± 0.097	1 ± 0.062
TAF3 (UniProt Q5VWG9)	1.02 ± 0.082	1.03 ± 0.05	1.05 ± 0.087	1.05 ± 0.042	1.06 ± 0.1	1.1 ± 0.066
UniProt Q5T011 and related entries	0.976 ± 0.053	0.986 ± 0.17	0.843 ± 0.038	1.05 ± 0.13	1.01 ± 0.19	1.06 ± 0.066
MRM1 (UniProt Q6IN84)	1.18 ± 0.093	1.22 ± 0.083	1.38 ± 0.091	1.45 ± 0.18	1.47 ± 0.23	1.53 ± 0.19

Target	NP40-soluble protein abundance (concentration: 1mM)	NP40-soluble protein abundance (concentration: 2mM)	NP40-soluble protein abundance (concentration: 4mM)	NP40-soluble protein abundance (concentration: 6mM)	NP40-soluble protein abundance (concentration: 8mM)	NP40-soluble protein abundance (concentration: 10mM)
UniProt Q6IA86 and related entries	1.09 ± 0.17	1.07 ± 0.078	1.06 ± 0.087	0.971 ± 0.052	1.05 ± 0.051	1.04 ± 0.067
AGK (UniProt Q53H12)	1.01 ± 0.12	1 ± 0.059	1.02 ± 0.054	0.983 ± 0.088	1.08 ± 0.032	1.09 ± 0.051
UniProt Q5T0N5-3|Q5T0N5-4	0.956 ± 0.033	0.9877 ± 0.0049	0.995 ± 0.013	1.03 ± 0.016	0.98 ± 0.015	0.991 ± 0.019
UniProt Q5EBL8 and related entries	1.04 ± 0.08	1.04 ± 0.026	1.13 ± 0.052	1.07 ± 0.048	1.01 ± 0.064	1.01 ± 0.07
HSD17B12 (UniProt Q53GQ0)	0.999 ± 0.11	0.94 ± 0.049	0.915 ± 0.016	0.886 ± 0.096	0.965 ± 0.021	0.954 ± 0.043
UniProt Q5SWX8 and related entries	1 ± 0.079	1.05 ± 0.068	1.06 ± 0.032	0.989 ± 0.075	1.02 ± 0.051	1.03 ± 0.044
UniProt Q5XUX1 and related entries	1.03 ± 0.11	1.1 ± 0.08	1.06 ± 0.037	0.937 ± 0.076	1.03 ± 0.032	1 ± 0.018
UniProt Q5T0B9	0.95 ± 0.11	0.985 ± 0.059	1.01 ± 0.051	0.985 ± 0.19	0.93 ± 0.044	0.929 ± 0.072
UniProt Q5VTB9 and related entries	0.935 ± 0.037	0.93 ± 0.048	0.94 ± 0.02	0.951 ± 0.022	0.92 ± 0.021	0.943 ± 0.032
TMEM41B (UniProt Q5BJD5)	0.92 ± 0.052	0.962 ± 0.071	0.932 ± 0.042	0.919 ± 0.11	0.964 ± 0.059	0.957 ± 0.069
UniProt Q5TC82 and related entries	1.08 ± 0.047	1.02 ± 0.075	1.06 ± 0.085	1.1 ± 0.069	1.09 ± 0.016	1.01 ± 0.035
UniProt Q6IQ49 and related entries	0.931 ± 0.034	0.933 ± 0.022	0.931 ± 0.028	0.973 ± 0.025	0.942 ± 0.021	0.94 ± 0.027
METTL2B (UniProt Q6P1Q9)	1.01 ± 0.077	1 ± 0.02	1.03 ± 0.07	0.966 ± 0.032	1.009 ± 0.0058	0.961 ± 0.034
RNF123 (UniProt Q5XPI4)	0.968 ± 0.048	0.9298 ± 0.004	0.914 ± 0.034	0.877 ± 0.028	0.969 ± 0.047	0.953 ± 0.023
SLC27A4 (UniProt Q6P1M0)	1.04 ± 0.03	1.08 ± 0.068	1.09 ± 0.025	1.09 ± 0.066	1.1 ± 0.027	1.12 ± 0.078
BEND3 (UniProt Q5T5X7)	0.998 ± 0.019	0.972 ± 0.037	0.999 ± 0.036	1.01 ± 0.015	1.003 ± 0.0084	0.997 ± 0.043
UniProt Q5JSP0 and related entries	0.986 ± 0.043	0.973 ± 0.018	0.973 ± 0.017	0.976 ± 0.012	0.953 ± 0.014	0.949 ± 0.01
MRPL2 (UniProt Q5T653)	1.04 ± 0.082	0.967 ± 0.12	0.955 ± 0.13	0.887 ± 0.14	0.973 ± 0.19	0.89 ± 0.11
UniProt Q5T440	0.973 ± 0.094	0.986 ± 0.067	1 ± 0.027	0.903 ± 0.085	0.973 ± 0.032	0.99 ± 0.054
UniProt Q53TN4 and related entries	1.04 ± 0.16	1.05 ± 0.18	1.06 ± 0.087	1.15 ± 0.12	0.99 ± 0.16	1.07 ± 0.069

Some of the entries so far, with each value named.
HSD17B12 (UniProt Q53GQ0)
  NP40-soluble protein abundance (concentration: 1mM): 0.999 ± 0.11
  NP40-soluble protein abundance (concentration: 2mM): 0.94 ± 0.049
  NP40-soluble protein abundance (concentration: 4mM): 0.915 ± 0.016
  NP40-soluble protein abundance (concentration: 6mM): 0.886 ± 0.096
  NP40-soluble protein abundance (concentration: 8mM): 0.965 ± 0.021
  NP40-soluble protein abundance (concentration: 10mM): 0.954 ± 0.043
UniProt Q5SWX8 and related entries
  NP40-soluble protein abundance (concentration: 1mM): 1 ± 0.079
  NP40-soluble protein abundance (concentration: 2mM): 1.05 ± 0.068
  NP40-soluble protein abundance (concentration: 4mM): 1.06 ± 0.032
  NP40-soluble protein abundance (concentration: 6mM): 0.989 ± 0.075
  NP40-soluble protein abundance (concentration: 8mM): 1.02 ± 0.051
  NP40-soluble protein abundance (concentration: 10mM): 1.03 ± 0.044
UniProt Q5XUX1 and related entries
  NP40-soluble protein abundance (concentration: 1mM): 1.03 ± 0.11
  NP40-soluble protein abundance (concentration: 2mM): 1.1 ± 0.08
  NP40-soluble protein abundance (concentration: 4mM): 1.06 ± 0.037
  NP40-soluble protein abundance (concentration: 6mM): 0.937 ± 0.076
  NP40-soluble protein abundance (concentration: 8mM): 1.03 ± 0.032
  NP40-soluble protein abundance (concentration: 10mM): 1 ± 0.018

Source: the supplement of paper PMC6411743
